According to patent publication US11999745B2, “Pharmaceutical compounds” (Heptares Therapeutics Limited, priority 2020, dated 2024):

Test system: scPCP treated female Lister Hooded rats
Assay: Attenuation of sub-chronic PCP-induced deficit in the operant reversal learning task
Format: in vivo, rat
Conditions: mean ± S.E.M (n = 6-9)
Procedure: Investigate the ability of Example 1 (1, 3, 10 and 30 mg/kg, p.o., 1 hour pre-treatment time ptt) to attenuate the disruption of a cognitive task induced by sub-chronic treatment with phencyclidine (scPCP) in female Lister Hooded rats.
Female Lister Hooded rats were used for this experiment. The average weight of rats at the time of testing was 294 g±29 g. Rats were housed in groups of 3-5 under standard laboratory conditions under a 12 hr light: dark cycle (lights on at 0700 hr), and food restricted to 90% of free-feeding bodyweight (12 g of food per rat per day). Testing was carried out in the light phase. Rats were randomly assigned to two treatment groups and received vehicle, n=8 (0.9% saline solution, i.p.) or PCP, n=48 (2 mg/kg, i.p. twice daily for 7-days). On the day of testing, rats were randomly assigned to seven treatment groups (n=6-8 per group) to receive an acute treatment with Example 1 (1, 3, 10 and 30 mg/kg, p.o., 1 hour ptt) or vehicle. Example 1 was dissolved in 1% methylcellulose and administered orally (p.o.) in a volume of 5 ml/kg, 1 hour prior to testing. The study was carried out in accordance with the Animals Scientific Procedures Act (UK, 1986) and was approved by the University of Manchester AWERB (Animal Welfare and Ethical Review Body).
Following habituation to the operant chambers, rats were trained to respond for food on an FR1 (Fixed Ratio 1) schedule of reinforcement with both levers active. When responding was stabilised, rats were trained to press either the left or right lever for food delivery and the active lever was varied from day to day. Each session lasted 20 minutes and counts were recorded on each lever. Subsequently the rats were then trained to respond for food according to the position of a visual cue (a lit LED). Half were trained to press the lever under the lit LED in order to receive a food reward, the other half were trained on the opposite contingency (to press the lever under the non-lit LED). The experimental session was terminated following a total of 128 lever presses, which took approximately 30 minutes. Subsequently, rats were trained until they again reached criterion on the opposite contingency.
The day before each reversal learning task session, a full […] operant training session (as described above) was conducted to ensure stable responding. For the reversal learning task animals were first exposed to a 5-minute period during which the contingency (cue position relative to active lever) was the same as for the operant training session. During this period, responses on both correct and incorrect levers were recorded. This part of the session is termed the initial phase. In the subsequent 5-minute period, the contingency was reversed. Responses made on the correct and incorrect levers were again recorded. This second period is termed the reversal phase. At this stage, training ceased and rats were treated with PCP (2 mg/kg, i.p. or vehicle 0.9% saline, i.p.) for 7 days followed by at least a 7-day washout period. Rats were randomized such that all rats within a cage received a different drug treatment.
Data are presented as percent correct response (±S.E.M) with values for the initial and reversal phases are presented for the different drug treatment groups (FIG. 2). The percentage correct response data were used to determine whether there was a significant effect of drug on response accuracy (e.g. that might reflect cognitive dysfunction); Statistical significance was assumed when P<0.05 and was determined using one-way ANOVA in order to detect main effect of drug treatment in the initial and reversal phases.

## CC(C)(C)NC(=O)C1CCN([C@H]2C[C@H]3CC[C@@H](C2)N3c2nc(C(F)(F)F)no2)CC1 [Example 1, N-tert-butyl-1-{(1R,3r,5S)-8-[3-(trifluoromethyl)-1,2,4-oxadiazol-5-yl]-8-azabicyclo[3.2.1]octan-3-yl}piperidine-4-carboxamide]
1.0 mg/kg p.o.
  mean total number of lever presses, Initial phase: 27.4 ± 0.2
  mean total number of lever presses, Reversal phase: 27.5 ± 0.3
3.0 mg/kg p.o.
  mean total number of lever presses, Initial phase: 27.5 ± 0.2
  mean total number of lever presses, Reversal phase: 26.8 ± 0.2
10.0 mg/kg p.o.
  mean total number of lever presses, Initial phase: 27.0 ± 0.3
  mean total number of lever presses, Reversal phase: 26.6 ± 0.5
30.0 mg/kg p.o.
  mean total number of lever presses, Initial phase: 26.4 ± 0.6
  mean total number of lever presses, Reversal phase: 26.6 ± 0.3
